Results deposited as PubChem BioAssay AID504793 (Drosophila RNAi Screening Center, 2011).
In all, the deposit lists about 23,000 reagents; this is an unselected part of those with a known target gene and a result. Of all reagents, 62 (0.27%) are marked active. 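Calls come from follow-up tests whose scores are not deposited, so confirmed genes may have low counts here; counts are not normalised per plate.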 Raw values vary from plate to plate and are shown uncorrected. The numbers tell different reagents against one gene apart. No sequences are given here.

- Aim: 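Whole-genome screen for parts of the DNA damage checkpoint at G2/M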 (primary screen)
- Cells: Drosophila S2R+ cells
- Knock-down reagent: long dsRNA against Drosophila genes, about 0.25 µg dsRNA per well
- Time to read-out: 4 days of dsRNA, then 4 hours of drug before read-out
- Conditions: doxorubicin 0.5 µM for 4 hours to cause double-strand breaks, in cells also given a low, harmless dose of dsRNA against nbs to sensitise the assay
- Read-out: 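Mitotic index as the number of phospho-histone H3-positive cells in each well following doxorubicin, given as raw counts without normalisation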
- Scale: mitotic cells: higher = more cells in mitosis, weaker G2 arrest
- Active means: 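Genes are called active only when high mitotic counts were reproduced with independent dsRNAs and mitosis was checked for delay without damage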
- Calls: active = confirmed in follow-up tests; inactive = not confirmed

| gene | reagent | mitotic cells, replicate 1 | Outcome |
| --- | --- | --- | --- |
| CG10958 | 1 | 7 | inactive |
| CG10958 | 2 | 5 | inactive |
| CG5013 | 1 | 1 | inactive |
| Fie (Fire exit) | 1 | 11 | inactive |
| CG4045 | 1 | 5 | inactive |
| Hpr1 | 1 | 6 | inactive |
| CG8245 | 1 | 15 | inactive |
| CG13654 | 1 | – | inactive |
| Blm (Bloom syndrome helicase) | 1 | 14 | inactive |
| Agpat3 (1-Acylglycerol-3-phosphate O-acyltransferase 3) | 1 | 6 | inactive |
| CG15877 | 1 | 9 | inactive |
| Coa8 (Cytochrome c oxidase assembly factor 8) | 1 | 14 | inactive |
| RpL26 (Ribosomal protein L26) | 1 | 9 | inactive |
| CG12861 | 1 | 7 | inactive |
| CG12861 | 2 | 8 | inactive |
| CG12861 | 3 | 4 | inactive |
| CG7607 | 1 | 3 | inactive |
| CG8064 | 1 | 8 | inactive |
| CkIIbeta (Casein kinase II beta subunit) | 1 | 15 | inactive |
| Bap60 (Brahma associated protein 60kD) | 1 | 12 | inactive |
| CG31176 | 1 | 14 | inactive |
| CG31176 | 2 | 12 | inactive |
| Mtr3 | 1 | 15 | inactive |
| Mtr3 | 2 | 9 | inactive |
| Est-P (Esterase P) | 1 | 5 | inactive |
| Est-P (Esterase P) | 2 | 4 | inactive |
| CG14125 | 1 | 3 | inactive |
| fd96Cb (forkhead domain 96Cb) | 1 | 8 | inactive |
| fd96Cb (forkhead domain 96Cb) | 2 | 7 | inactive |
| CG7149 | 1 | 9 | inactive |
| rept (reptin) | 1 | 42 | active |
| rept (reptin) | 2 | 19 | inactive |
| Nedd4 | 1 | 4 | inactive |
| Nedd4 | 2 | 19 | inactive |
| Nedd4 | 3 | 5 | inactive |
| TrpRS (Tryptophanyl-tRNA synthetase) | 1 | 3 | inactive |
| Saysd1 (SAYSVFN motif domain containing 1) | 1 | 7 | inactive |
| HmgZ (HMG protein Z) | 1 | 10 | inactive |
| HmgZ (HMG protein Z) | 2 | 7 | inactive |
| Cyp6t1 (Cytochrome P450 6t1) | 1 | 12 | inactive |
| Cyp6t1 (Cytochrome P450 6t1) | 2 | 10 | inactive |
| Cln7 | 1 | 10 | inactive |
| Lmpt (Limpet) | 1 | 11 | inactive |
| Lmpt (Limpet) | 2 | 3 | inactive |
| Lmpt (Limpet) | 3 | 12 | inactive |
| Lmpt (Limpet) | 4 | 3 | inactive |
| Lmpt (Limpet) | 5 | 2 | inactive |
| Lmpt (Limpet) | 6 | 14 | inactive |
| Lmpt (Limpet) | 7 | 6 | inactive |
| Lmpt (Limpet) | 8 | 3 | inactive |
| Lmpt (Limpet) | 9 | 7 | inactive |
| Lmpt (Limpet) | 10 | 4 | inactive |

Hits, among the entries above:
| gene | reagent | mitotic cells, replicate 1 | Outcome |
| --- | --- | --- | --- |
| rept (reptin) | 1 | 42 | active |
